Screen size: about 2,000 compounds; about 190 (9.5%) were called active. This list was built around the results that the source calls inconclusive (neither active nor inactive); the mix of calls is not that of the screen.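 Rule for the calls: active = fitted activation curve crossing 40% at a concentration no higher than the sample's top valid tested dose; inconclusive = flat fitted curve at 30% to 70% activation, or poor curve fit; inactive = signal decrease, flat curve within 30%, or the rest.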
Experiment: sustained heat shock response element induction – cell-based, mouse, luciferase, cherry-pick, dose, confirmation (AID 602296);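 note: test compounds applied by themselves with no MG132 co-treatment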
Conditions: NIH3T3-HGL HSF-1 response element luciferase, 48 h; at 26 µM (top of the series) unless noted

Compound | activation
Cc1nc2nc(-c3ccc(F)cc3)cn2nc1C | inconclusive: -44%
O=C1S/C(=C\c2ccc(N3CCOCC3)o2)C(=O)N1Cc1c(F)cccc1Cl | inconclusive: 161%
COc1ccc(-c2cc3ccc(OCC(C)=O)cc3oc2=O)cc1 | inconclusive: -50.1%
CC(C)c1ccc2c(c1)[C@H]1OCC[C@H]1[C@@H](c1cccs1)N2 | inconclusive: -29.1%
CCN(CC)CCn1c2ccccc2c2nc3ccc([N+](=O)[O-])cc3cc21 | inconclusive: 308%
O=C(Nc1ccc(-c2nc3ncccc3o2)cc1)c1ccc([N+](=O)[O-])o1 | inconclusive: 47.2%
Cc1ccc(N(NC(=O)C(O)(c2ccccc2)c2ccccc2)C(=O)CCl)cc1 | inconclusive: -95.7%
O=C(COC(=O)c1ccc2c(c1[N+](=O)[O-])C(=O)c1ccccc1C2=O)NC1CC1 | inconclusive: -96.3%
Cc1cccc(C)c1NC(=O)c1nc(S(=O)(=O)Cc2ccccc2)ncc1Cl | inconclusive: -100%
COc1ccc(S(=O)(=O)n2nc(OC(=O)c3ccccc3Br)cc2N)cc1 | inconclusive: 58.1%
S=C(NCc1ccco1)N/N=C/c1ccc(Cl)cc1 | inconclusive: -31.4%
Cc1ccc(C(=O)Nc2nnc(C3CCCCC3)s2)o1 | inconclusive: -46.1%
Cc1ccc2[nH]c3c(N4CCc5ccccc5C4)ncnc3c2c1 | inconclusive: -7.77%
COc1ccc(NC(=S)c2ccc(N(C)C)cc2)cc1 | inconclusive: -11.2%
O=C1CC(NNc2ccccc2)C(=O)N1c1ccccc1 (stereo unspecified) | inactive: -54.7%
O=C(NCCc1ccc(O)c(O)c1)C1COc2ccccc2O1 (stereo unspecified) | inactive: -31.9%
O=C1CC(c2ccccc2Cl)CC(O)=C1C=Nc1ccccc1 (stereo unspecified) | inconclusive: -78%
COc1ccc(-c2cc(C(F)(F)F)nc(S(C)(=O)=O)n2)cc1OC | inconclusive: -97.4%
CC(C)SC1=NC(C)(C)C=C(/C=C/c2ccc(Cl)cc2Cl)N1 | inconclusive: -43.4%

Compound | activation
Cc1cccc2cc3c(nc12)SC(=NCC1CCCO1)N(Cc1ccco1)C3 (stereo unspecified) | inconclusive: -84.3%
Cc1ccc(C2=NN(C(=O)CCl)C(c3cccs3)C2)o1 (stereo unspecified) | inconclusive: -98.8%
NCCCCCc1nnc(SC/C=C/c2ccccc2)o1 | inactive: -5.43%
S=C(Nc1cccc(Cl)c1)N(CCCN1CCCC1)Cc1cccn1Cc1ccc(Cl)cc1 | inconclusive: -96.9%
CCCCc1ccc(-c2ccc(Br)cc2)nc1 | inconclusive: -75.6%
Cc1ccccc1N1C(=O)CC(Sc2nnc(-c3ccccc3)o2)C1=O (stereo unspecified) | inconclusive: -105%
Cc1cccc(-c2cc3c(nn2)-c2ccccc2C3=O)c1 | inconclusive: 35.9%
COc1ccc(C(C[N+](=O)[O-])C2(c3ccc(OC)c(OC)c3)C(=O)c3ccccc3C2=O)cc1 (stereo unspecified) | inconclusive: -68.1%
Cc1ccccc1Oc1nc2c(C)cccn2c(=O)c1/C=C(\C#N)C(=O)Nc1c(C)n(C)n(-c2ccccc2)c1=O | inconclusive: 343%
COc1ccc(C(=O)N(C)CC(O)c2ccccc2)cc1OC1CCN(C(C)=O)CC1 (stereo unspecified) | inactive: -5.01%
Cc1cc(C)nc(Sc2nc(Cl)nc(N(c3ccccc3)c3ccccc3)n2)n1 | inactive: -20.4%
COCCCNC(=O)c1ccc2c3c(onc13)-c1ccccc1C2=O | inconclusive: -100%
Oc1ccc(/C=N/Nc2ncc(Br)cn2)c(O)c1 | inconclusive: -58.2%
CN1CCN(c2ccc(Nc3ccnc4cc(Cl)ccc34)cc2)CC1 | inconclusive: 9.84%
COC(=O)Cc1ccc(NC(=O)c2ccc(C)c(C)c2)cc1 | inactive: -71.3%
COC(=O)C1=C(C)N(Cc2ccc(C)cc2)C(=O)/C1=C\c1cc(OC)c(OC)c(OC)c1 | inconclusive: 253%
O=C1N(c2ccccc2)CCN1c1ccccc1 | inconclusive: 4.68%
N#Cc1cc(-c2ccccc2)cnc1Sc1ccccc1 | inconclusive: 38.9%
CCOc1ccc(CN(C)CC(O)COC(c2ccc(OC)cc2)c2ccc(OC)cc2)cc1 (stereo unspecified) | inactive: -94%

Compound | activation
COc1cccc(N/C(SCc2cccc([N+](=O)[O-])c2)=C(/C#N)C(=O)NCc2cccs2)c1 | inconclusive: -19.3%
COc1ccc(/C=C/C(=O)c2ccc(NS(=O)(=O)c3ccc(C)cc3)cc2)cc1O | inconclusive: -65.7%
CCOC(=O)/C(=C\c1ccc(Cl)cc1)c1nc2sc(C)c(C)c2c(=O)[nH]1 | inconclusive: -89.8%
COc1ccccc1C(=O)NCCCNC(=O)c1ccccn1 | inactive: 1.6%
CC(=O)c1nn(-c2cccc(Br)c2)cc1C(=O)c1ccc(Cl)cc1 | inconclusive: -27.1%
O=C(C#Cc1cccc([N+](=O)[O-])c1)c1ccccc1 | inconclusive: -32.4%
CC(=O)C1=C(O)C(=O)N(c2nccs2)C1c1ccccc1 (stereo unspecified) | inactive: -6.69%
Cc1c(O)ccc(/C=N/Nc2ncccc2[N+](=O)[O-])c1O | inconclusive: -13.9%
C=C(CCC(=O)c1ccccc1)C(=O)c1ccccc1 | inconclusive: -101%
O=C(O)CCC(=O)NCCn1c(-c2ccccc2)csc1=Nc1ccccc1 | inconclusive: 25%
CC(C)(C)c1ccc(C(=O)CC(Sc2ccc(Cl)cc2)C(=O)O)cc1 (stereo unspecified) | inconclusive: -34.5%
COC(=O)Nc1ccc(S(=O)(=O)N2CCC(C(=O)N3CCCC(C)C3)CC2)cc1 (stereo unspecified) | inactive: 8.64%
c1cnc(N2CCN(c3ccc4ccccc4n3)CC2)nc1 | inconclusive: -30.6%
O=C(Nc1ccc(O)c(-c2nc3ccccc3o2)c1)C1(c2ccc(Cl)cc2)CCCC1 | inconclusive: -8.5%
CCOC(=O)c1c(NC(=S)N2CCCCC2)sc2c1CCN(C(=O)OCC)C2 | inconclusive: -104%
O=[N+]([O-])c1cc(-c2ncccn2)c([N+](=O)[O-])s1 | inconclusive: 21.9%
CCSC1(SCC)N=C(N)C2(C#N)C(c3ccc(OC)c(OC)c3OC)C12C#N (stereo unspecified) | inconclusive: 30%
Cc1ccc(-c2cc(NC(=O)CCl)n(-c3ccccc3)n2)cc1 | inconclusive: -95.8%

Entries listed so far that contain fluorine (three):
Compound | activation
Cc1nc2nc(-c3ccc(F)cc3)cn2nc1C | inconclusive: -44%
O=C1S/C(=C\c2ccc(N3CCOCC3)o2)C(=O)N1Cc1c(F)cccc1Cl | inconclusive: 161%
COc1ccc(-c2cc(C(F)(F)F)nc(S(C)(=O)=O)n2)cc1OC | inconclusive: -97.4%

— PubChem BioAssay AID602296 (Broad Institute, 2012)
